Reference: patent US20110300579A1
No constants are given. Whether binding was seen depends on the method and setting. Some binding calls cover weakened binding; strength is not graded here.

The chains behind the UniProt entries cited, without tags or fusion partners. Where a name states a change or a piece, a line headed by the entry shows the natural chain unless it says otherwise.
UniProt P08648: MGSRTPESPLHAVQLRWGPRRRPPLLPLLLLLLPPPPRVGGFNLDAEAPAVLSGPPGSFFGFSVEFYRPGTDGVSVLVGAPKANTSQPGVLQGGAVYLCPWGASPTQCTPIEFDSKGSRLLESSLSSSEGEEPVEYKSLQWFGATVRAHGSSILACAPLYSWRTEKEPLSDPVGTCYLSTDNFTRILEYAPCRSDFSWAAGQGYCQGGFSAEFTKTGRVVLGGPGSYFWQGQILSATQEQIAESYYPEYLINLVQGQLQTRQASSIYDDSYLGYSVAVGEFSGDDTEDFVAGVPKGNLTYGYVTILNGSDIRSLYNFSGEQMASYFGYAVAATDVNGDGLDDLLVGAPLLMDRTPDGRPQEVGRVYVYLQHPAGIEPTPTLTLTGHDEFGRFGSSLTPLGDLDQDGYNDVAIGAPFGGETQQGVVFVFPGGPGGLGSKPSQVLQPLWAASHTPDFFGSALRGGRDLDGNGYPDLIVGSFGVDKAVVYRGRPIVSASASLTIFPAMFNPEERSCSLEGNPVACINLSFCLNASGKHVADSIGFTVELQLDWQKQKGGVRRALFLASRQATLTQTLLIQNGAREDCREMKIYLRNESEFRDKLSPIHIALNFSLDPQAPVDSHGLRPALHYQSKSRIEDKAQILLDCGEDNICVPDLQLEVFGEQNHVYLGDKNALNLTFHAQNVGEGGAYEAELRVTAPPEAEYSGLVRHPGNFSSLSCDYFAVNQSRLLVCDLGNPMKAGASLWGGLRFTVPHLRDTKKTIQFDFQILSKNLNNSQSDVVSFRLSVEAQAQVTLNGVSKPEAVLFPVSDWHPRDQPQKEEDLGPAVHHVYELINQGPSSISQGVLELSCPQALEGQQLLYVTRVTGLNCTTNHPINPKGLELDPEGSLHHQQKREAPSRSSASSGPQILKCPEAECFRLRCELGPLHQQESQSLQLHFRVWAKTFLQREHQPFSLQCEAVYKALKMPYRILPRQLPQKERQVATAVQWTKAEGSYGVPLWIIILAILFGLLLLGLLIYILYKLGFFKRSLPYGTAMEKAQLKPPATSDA
UniProt P06756: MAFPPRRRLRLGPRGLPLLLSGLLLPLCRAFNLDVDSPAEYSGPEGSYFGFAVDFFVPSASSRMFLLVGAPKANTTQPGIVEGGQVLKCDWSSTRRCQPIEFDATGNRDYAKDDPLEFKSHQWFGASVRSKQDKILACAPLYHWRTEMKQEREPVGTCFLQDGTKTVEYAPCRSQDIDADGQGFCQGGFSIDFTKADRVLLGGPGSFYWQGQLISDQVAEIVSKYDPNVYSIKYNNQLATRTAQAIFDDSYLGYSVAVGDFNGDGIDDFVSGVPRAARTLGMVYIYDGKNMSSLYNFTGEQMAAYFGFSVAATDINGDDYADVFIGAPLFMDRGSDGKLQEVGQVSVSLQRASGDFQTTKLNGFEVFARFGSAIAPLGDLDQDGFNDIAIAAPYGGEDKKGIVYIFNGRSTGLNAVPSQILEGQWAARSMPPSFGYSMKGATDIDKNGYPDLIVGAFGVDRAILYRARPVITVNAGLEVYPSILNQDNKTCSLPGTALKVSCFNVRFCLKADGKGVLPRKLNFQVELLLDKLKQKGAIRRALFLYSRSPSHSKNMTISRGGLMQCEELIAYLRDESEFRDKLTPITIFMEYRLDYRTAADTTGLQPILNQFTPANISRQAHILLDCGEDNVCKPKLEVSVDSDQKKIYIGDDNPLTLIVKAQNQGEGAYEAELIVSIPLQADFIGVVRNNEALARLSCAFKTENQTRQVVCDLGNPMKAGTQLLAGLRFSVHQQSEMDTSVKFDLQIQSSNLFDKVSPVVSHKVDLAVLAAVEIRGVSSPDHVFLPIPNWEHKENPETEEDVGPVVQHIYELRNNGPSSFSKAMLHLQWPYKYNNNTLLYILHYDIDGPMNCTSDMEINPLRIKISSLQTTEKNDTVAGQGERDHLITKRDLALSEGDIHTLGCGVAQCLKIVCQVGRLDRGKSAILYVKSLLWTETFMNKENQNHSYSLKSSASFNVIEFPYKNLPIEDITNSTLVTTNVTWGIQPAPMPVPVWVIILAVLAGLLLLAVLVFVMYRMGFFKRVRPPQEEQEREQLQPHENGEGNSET

Key:
Test in all cases: fluorescence polarization
[1] = target: soluble recombinant α5β1 integrin (R&D Systems) (UniProt P08648)
[2] = target: purified soluble αvβ5 integrin (Millipore) (UniProt P06756)
[3] = target: purified soluble αvβ3 integrin (Millipore) (UniProt P06756)

Measured: binding

B1: Contortrostatin (CN), native, purified from Agkistrodon contortrix contortrix venom (ligand)
chain: DAPANPCCDAATCKLTTGSQCADGLCCDQCKFMKEGTVCRRARGDDLDDYCNGISAGCPRNPFH
binds: all assays above
